In the supplement of paper PMC4604168 (melanoma cell lines):
Some of the results follow. Many values rest on one well or one pass, so single values are uncertain.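 Cells were imaged in 1,536-well plates, and nuclei stained with an antibody against cleaved PARP were counted against all DNA-stained nuclei to give the apoptosis fraction. Screening doses were chosen to leave most cells alive, and resting and induced cleaved-PARP levels differ strongly between cell lines.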

What was measured:
Test in all cases: cleaved PARP positive nuclei fraction relative to DMSO control; melanoma cells; higher = more apoptosis
Settings in all cases: library dose: low library concentration; 72 h
[1] = test system: MZ2-MEL
[2] = test system: MeWo
[3] = test system: RPMI7951
[4] = test system: RVH-421
[5] = test system: SkMel28
[6] = test system: SkMel2
[7] = test system: SkMel30
[8] = test system: UACC62
[9] = test system: WM115
[10] = test system: WM1716
[11] = test system: WM1745
[12] = test system: WM3526
[13] = test system: WM3619
[14] = test system: WM451Lu

Structure (SMILES)	cleaved PARP positive nuclei fraction [1] [%]	cleaved PARP positive nuclei fraction [2] [%]	cleaved PARP positive nuclei fraction [3] [%]	cleaved PARP positive nuclei fraction [4] [%]	cleaved PARP positive nuclei fraction [5] [%]	cleaved PARP positive nuclei fraction [6] [%]	cleaved PARP positive nuclei fraction [7] [%]	cleaved PARP positive nuclei fraction [8] [%]	cleaved PARP positive nuclei fraction [9] [%]	cleaved PARP positive nuclei fraction [10] [%]	cleaved PARP positive nuclei fraction [11] [%]	cleaved PARP positive nuclei fraction [12] [%]	cleaved PARP positive nuclei fraction [13] [%]	cleaved PARP positive nuclei fraction [14] [%]
C[As](C)SC[C@H](NC(=O)CC[C@H](N)C(=O)O)C(=O)NCC(=O)O [Darinaparsin] + Cn1c(Nc2ccc(C(F)(F)F)cc2)nc2cc(Oc3ccnc(-c4ncc(C(F)(F)F)[nH]4)c3)ccc21 [CHIR265] (first compound 0.4 µM, partner dose 0.08 µM)	81.6	118	83.6	262	149	87.4	118	233	507	78	128	378	132	91.5
N.N.[Cl][Pt][Cl] [cisplatin] + COc1ccc(Cl)c(Nc2nc3ccccc3nc2NS(=O)(=O)c2cccc(NC(=O)C(C)(C)N)c2)c1 [XL147] (first compound 1.6 µM, partner dose 0.8 µM)	89	185	64.8	122	187	80.6	103	150	197	138	88.3	34.9	75.9	41.4
CCCCCCCCCCCCCCCCCCOP(=O)([O-])OC1CC[N+](C)(C)CC1 [Perifosine] + Cn1cc(C2=C(c3cn(C4CCN(Cc5ccccn5)CC4)c4ccccc34)C(=O)NC2=O)c2ccccc21 [Enzastaurin] (first compound 0.4 µM, partner dose 0.8 µM)	92.8	119	121	175	97.8	60	115	123	87	74.8	84.8	38.6	96.2	109
Cn1cc(C2=C(c3cn(C4CCN(Cc5ccccn5)CC4)c4ccccc34)C(=O)NC2=O)c2ccccc21 [Enzastaurin] + CN(c1ncccc1CNc1nc(Nc2ccc3c(c2)CC(=O)N3)ncc1C(F)(F)F)S(C)(=O)=O [PF562271] (first compound 0.8 µM, partner dose 0.08 µM)	211	112	209	80.1	69.6	87.3	69.1	54.5	103	77.2	104	17	83.5	56.5
CCCCCCCCCCCCCCCCCCOP(=O)([O-])OC1CC[N+](C)(C)CC1 [Perifosine] + N.N.[Cl][Pt][Cl] [cisplatin] (first compound 0.4 µM, partner dose 1.6 µM)	170	17.8	50.1	50.9	38.8	84	57.8	123	97.7	150	82.7	22.2	100	42.8
Cn1cc(C2=C(c3cn(C4CCN(Cc5ccccn5)CC4)c4ccccc34)C(=O)NC2=O)c2ccccc21 [Enzastaurin] + Nc1cccc2c1CN(C1CCC(=O)NC1=O)C2=O [lenalidomide] (first compound 0.8 µM, partner dose 1 µM)	135	32.3	100	23.8	78.5	115	22	55.2	31.4	222	123	19.9	105	29.2
Cc1cc(Nc2cc(N3CCN(C)CC3)nc(/C=C/c3ccccc3)n2)n[nH]1 + C[As](C)SC[C@H](NC(=O)CC[C@H](N)C(=O)O)C(=O)NCC(=O)O [Darinaparsin] (first compound 0.04 µM, partner dose 0.4 µM)	167	292	76.3	155	145	112	154	88.6	189	70.4	119	139	72.5	96.6
CCCCCCCCCCCCCCCCCCOP(=O)([O-])OC1CC[N+](C)(C)CC1 [Perifosine] + C[As](C)SC[C@H](NC(=O)CC[C@H](N)C(=O)O)C(=O)NCC(=O)O [Darinaparsin] (first compound 0.4 µM, partner dose 0.4 µM)	28.7	138	57.3	151	30.9	72.8	78.4	97.9	72.2	128	129	28.7	89.8	74.8
CC(C)C[C@H](NC(=O)[C@H](Cc1ccccc1)NC(=O)c1cnccn1)B(O)O [Bortezomib] + C[As](C)SC[C@H](NC(=O)CC[C@H](N)C(=O)O)C(=O)NCC(=O)O [Darinaparsin] (first compound 0.001 µM, partner dose 0.4 µM)	97.7	185	60.5	245	68.7	152	99.2	92.5	35.7	760	113	29.9	235	220
COc1cc([C@@H]2c3cc4c(cc3[C@@H](O[C@@H]3O[C@@H]5CO[C@@H](C)O[C@H]5[C@H](O)[C@H]3O)[C@H]3COC(=O)[C@H]23)OCO4)cc(OC)c1O [etoposide] + Cn1cc(C2=C(c3cn(C4CCN(Cc5ccccn5)CC4)c4ccccc34)C(=O)NC2=O)c2ccccc21 [Enzastaurin] (first compound 0.02 µM, partner dose 0.8 µM)	59.3	59.8	78.1	132	45.5	70.3	65.6	47.4	80.2	78.9	52.7	40	177	65.9
N.N.[Cl][Pt][Cl] [cisplatin] + COCC[n+]1c2c(n(Cc3cnccn3)c1C)C(=O)c1ccccc1C2=O [YM155] (first compound 1.6 µM, partner dose 0.0004 µM)	284	111	51.5	170	78.7	161	157	67.3	51.5	69.2	97.1	36.5	68.2	81.6
Cn1cc(C2=C(c3cn(C4CCN(Cc5ccccn5)CC4)c4ccccc34)C(=O)NC2=O)c2ccccc21 [Enzastaurin] + COc1ccc(Cl)c(Nc2nc3ccccc3nc2NS(=O)(=O)c2cccc(NC(=O)C(C)(C)N)c2)c1 [XL147] (first compound 0.8 µM, partner dose 0.8 µM)	153	47.6	200	85.6	70.2	208	83.7	226	83.2	31.5	122	19.3	104	180
N.N.[Cl][Pt][Cl] [cisplatin] + O=C(O)c1ccc2c(c1)nc(Nc1cccc(Cl)c1)c1ccncc12 [CX4945] (first compound 1.6 µM, partner dose 0.4 µM)	213	124	127	377	86.1	62.4	51.5	43.5	202	416	94.6	23.8	110	51.4
C=CCNC1=C2C[C@@H](C)C[C@H](OC)[C@H](O)[C@@H](C)/C=C(\C)[C@H](OC(N)=O)[C@@H](OC)/C=C\C=C(/C)C(=O)NC(=CC1=O)C2=O [Tanespimycin] + C[As](C)SC[C@H](NC(=O)CC[C@H](N)C(=O)O)C(=O)NCC(=O)O [Darinaparsin] (first compound 0.002 µM, partner dose 0.4 µM)	154	129	112	161	76.7	134	60.5	86.5	146	214	133	86.8	108	148
O=C(/C=C/c1cccnc1)NCCCCC1CCN(C(=O)c2ccccc2)CC1 + C[As](C)SC[C@H](NC(=O)CC[C@H](N)C(=O)O)C(=O)NCC(=O)O [Darinaparsin] (first compound 0.01 µM, partner dose 0.4 µM)	384	128	66.5	275	40.8	878	67.6	45.4	96.8	592	81.2	40.8	73.1	89.3
Cn1cc(C2=C(c3cn(C4CCN(Cc5ccccn5)CC4)c4ccccc34)C(=O)NC2=O)c2ccccc21 [Enzastaurin] + CNC(=O)c1cc(Oc2ccc(NC(=O)Nc3ccc(Cl)c(C(F)(F)F)c3)cc2)ccn1 [sorafenib] (first compound 0.8 µM, partner dose 0.4 µM)	90.5	143	182	73.1	88.8	171	34.1	179	54.8	192	96.9	74.4	86.4	80
Cn1cc(C2=C(c3cn(C4CCN(Cc5ccccn5)CC4)c4ccccc34)C(=O)NC2=O)c2ccccc21 [Enzastaurin] + Nc1ccn([C@@H]2O[C@H](CO)[C@@H](O)C2(F)F)c(=O)n1 [gemcitabine] (first compound 0.8 µM, partner dose 0.0004 µM)	60.9	137	47.6	194	172	105	56.5	165	152	57.1	237	102	99.3	131
N.N.[Cl][Pt][Cl] [cisplatin] + Nc1ccn([C@@H]2O[C@H](CO)[C@@H](O)C2(F)F)c(=O)n1 [gemcitabine] (first compound 1.6 µM, partner dose 0.0004 µM)	80.4	92.1	75.3	182	87.9	54.3	90.7	36.3	55.3	56.1	92.9	136	94.7	88.7
Cn1cc(C2=C(c3cn(C4CCN(Cc5ccccn5)CC4)c4ccccc34)C(=O)NC2=O)c2ccccc21 [Enzastaurin] + CCCCCCCCc1ccc(CCC(N)(CO)CO)cc1 [fingolimod] (first compound 0.8 µM, partner dose 2 µM)	47.2	28.9	38.2	73.3	49.9	61.1	69.7	266	112	206	110	29.2	141	49.1

Complete entries, quoted from the list. Order of values: cleaved PARP positive nuclei fraction [1] [%] | cleaved PARP positive nuclei fraction [2] [%] | cleaved PARP positive nuclei fraction [3] [%] | cleaved PARP positive nuclei fraction [4] [%] | cleaved PARP positive nuclei fraction [5] [%] | cleaved PARP positive nuclei fraction [6] [%] | cleaved PARP positive nuclei fraction [7] [%] | cleaved PARP positive nuclei fraction [8] [%] | cleaved PARP positive nuclei fraction [9] [%] | cleaved PARP positive nuclei fraction [10] [%] | cleaved PARP positive nuclei fraction [11] [%] | cleaved PARP positive nuclei fraction [12] [%] | cleaved PARP positive nuclei fraction [13] [%] | cleaved PARP positive nuclei fraction [14] [%]
Cn1cc(C2=C(c3cn(C4CCN(Cc5ccccn5)CC4)c4ccccc34)C(=O)NC2=O)c2ccccc21 [Enzastaurin] + CCCCCCCCc1ccc(CCC(N)(CO)CO)cc1 [fingolimod] (first compound 0.8 µM, partner dose 2 µM) as listed: 47.2 | 28.9 | 38.2 | 73.3 | 49.9 | 61.1 | 69.7 | 266 | 112 | 206 | 110 | 29.2 | 141 | 49.1
Cn1cc(C2=C(c3cn(C4CCN(Cc5ccccn5)CC4)c4ccccc34)C(=O)NC2=O)c2ccccc21 [Enzastaurin] + CN(c1ncccc1CNc1nc(Nc2ccc3c(c2)CC(=O)N3)ncc1C(F)(F)F)S(C)(=O)=O [PF562271] (first compound 0.8 µM, partner dose 0.08 µM) as listed: 211 | 112 | 209 | 80.1 | 69.6 | 87.3 | 69.1 | 54.5 | 103 | 77.2 | 104 | 17 | 83.5 | 56.5
